Experimental data published in publication PMC11111408, “Concurrent inhibition of oncogenic and wild-type RAS-GTP for cancer therapy” (Nature, 2024).
“And” between values parts separate entries of the source, which are not always exact repeats. Equal entries are not always repeated. This continues a long series; more values of the same kind are listed elsewhere.

Test: Body weight and tolerability of tumour bearing mice

## CCn1c(-c2cc(N3CCN(C4CC4)CC3)cnc2[C@H](C)OC)c2c3cc(ccc31)-c1csc(n1)C[C@H](NC(=O)[C@H]1[C@@H]3COC[C@@H]31)C(=O)N1CCC[C@H](N1)C(=O)OCC(C)(C)C2 [RMC-7977]
LUAD G12C model, RMC-7977 10 mg/kg po qd, day 29 on study, individual animals, 10 mg/kg
  % Body Weight Change: -4.17% and 4.35% (2×) and 3.85% and 0.00%
LUAD G12D model, RMC-7977 10 mg/kg po qd, day 0 on study, individual animals
  % Body Weight Change: 0.00%
LUAD G12D model, RMC-7977 10 mg/kg po qd, day 4 on study, individual animals, 10 mg/kg
  % Body Weight Change: -4.55% and 0.00% (3×) and -4.00%
LUAD G12D model, RMC-7977 10 mg/kg po qd, day 7 on study, individual animals, 10 mg/kg
  % Body Weight Change: -4.55% and -4.00% and 0.00% and -4.17% and -4.35%
LUAD G12D model, RMC-7977 10 mg/kg po qd, day 11 on study, individual animals, 10 mg/kg
  % Body Weight Change: -4.55% and 0.00% (3×) and 4.35%
LUAD G12D model, RMC-7977 10 mg/kg po qd, day 14 on study, individual animals, 10 mg/kg
  % Body Weight Change: -9.09% and -4.00% and 0.00% (2×) and -8.33%
LUAD G12D model, RMC-7977 10 mg/kg po qd, day 19 on study, individual animals, 10 mg/kg
  % Body Weight Change: -4.55% and 4.00% and 0.00% (3×)
LUAD G12D model, RMC-7977 10 mg/kg po qd, day 22 on study, individual animals, 10 mg/kg
  % Body Weight Change: 0.00% (4×) and 4.00%
LUAD G12D model, RMC-7977 10 mg/kg po qd, day 26 on study, individual animals, 10 mg/kg
  % Body Weight Change: 0.00% and 4.00% (2×) and 4.17% and 4.35%
LUAD G12D model, RMC-7977 10 mg/kg po qd, day 29 on study, individual animals
  % Body Weight Change: 0.00%
LUN352 model, RMC-7977 10 mg/kg po qd, day 0 on study, individual animals
  % Body Weight Change: 0.00%
LUN352 model, RMC-7977 10 mg/kg po qd, day 3 on study, individual animals, 10 mg/kg
  % Body Weight Change: 1.93% and 4.88% and 2.99%
LUN352 model, RMC-7977 10 mg/kg po qd, day 7 on study, individual animals, 10 mg/kg
  % Body Weight Change: 0.48% and 2.44% and 0.00%
LUN352 model, RMC-7977 10 mg/kg po qd, day 11 on study, individual animals, 10 mg/kg
  % Body Weight Change: -0.97% and 0.00% and 1.00%
LUN352 model, RMC-7977 10 mg/kg po qd, day 15 on study, individual animals, 10 mg/kg
  % Body Weight Change: 0.48% and 0.00% and 0.50%
LUN352 model, RMC-7977 10 mg/kg po qd, day 18 on study, individual animals, 10 mg/kg
  % Body Weight Change: 2.90% and 2.44% and 2.99%
LUN352 model, RMC-7977 10 mg/kg po qd, day 22 on study, individual animals, 10 mg/kg
  % Body Weight Change: 2.42% and 5.85% and 1.99%
LUN352 model, RMC-7977 10 mg/kg po qd, day 25 on study, individual animals, 10 mg/kg
  % Body Weight Change: -0.48% and 2.44% and -1.49%
LUN352 model, RMC-7977 10 mg/kg po qd, day 29 on study, individual animals, 10 mg/kg
  % Body Weight Change: -5.31% and 0.00% and -3.98%
MIA PaCa-2 tumor bearing BALB/c nude mice, 10 mg/kg po qd, day 0, individual animals
  % Body Weight Change: 0%
MIA PaCa-2 tumor bearing BALB/c nude mice, 10 mg/kg po qd, day 3, individual animals, 10 mg/kg
  % Body Weight Change: 0.6579% and 4.056% and 1.536% and 0.7654% and -2.692% and 1.247% and -1.541% and 0.5825% and 4.064% and 0.1224%
MIA PaCa-2 tumor bearing BALB/c nude mice, 10 mg/kg po qd, day 7, individual animals, 10 mg/kg
  % Body Weight Change: -1.692% and 3.403% and 3.512% and -0.03827% and -4.078% and -0.8018% and -1.4531% and -1.1285% and -0.2463% and -1.469%
MIA PaCa-2 tumor bearing BALB/c nude mice, 10 mg/kg po qd, day 10, individual animals, 10 mg/kg
  % Body Weight Change: -4.699% and -0.5594% and -0.2634% and -0.7654% and -6.651% and -2.762% and -2.158% and -3.677% and -2.956% and -5.1%
MIA PaCa-2 tumor bearing BALB/c nude mice, 10 mg/kg po qd, day 14, individual animals, 10 mg/kg
  % Body Weight Change: -2.256% and 3.17% and 2.239% and 0.995% and -4.632% and -0.08909% and -4.624% and 0.7645% and -2.791% and -0.9384%
MIA PaCa-2 tumor bearing BALB/c nude mice, 10 mg/kg po qd, day 17, individual animals, 10 mg/kg
  % Body Weight Change: -4.699% and 4.336% and 0.2634% and 1.339% and -7.403% and -0.7127% and -4.535% and -0.9829% and -2.915% and -3.101%
MIA PaCa-2 tumor bearing BALB/c nude mice, 10 mg/kg po qd, day 21, individual animals, 10 mg/kg
  % Body Weight Change: -0.7519% and 6.9% and 2.809% and 0.4975% and -6.73% and -0.2227% and -2.994% and -1.529% and -0.9442% and -2.978%
MIA PaCa-2 tumor bearing BALB/c nude mice, 10 mg/kg po qd, day 24, individual animals, 10 mg/kg
  % Body Weight Change: -2.726% and -3.45% and 1.536% and 0.9568% and -7.799% and -2.539% and 6.649% and -0.8009% and -10.7143% and -5.59%
MIA PaCa-2 tumor bearing BALB/c nude mice, 10 mg/kg po qd, day 28, individual animals, 10 mg/kg
  % Body Weight Change: -2.068% and 3.403% and 3.161% and 1.339% and -6.334% and 0.5791% and -1.145% and -0.7645% and 0.2463% and -0.4488%
NCI-H441 tumor bearing BALB/c nude mice, 10 mg/kg po qd, day 0, individual animals
  % Body Weight Change: 0%
NCI-H2009, RMC-7977 10 mg/kg po qd, day 0 on study, individual animals
  % Body Weight Change: 0.00%
NCI-H2009, RMC-7977 10 mg/kg po qd, day 3 on study, individual animals, 10 mg/kg
  % Body Weight Change: 2.42% and -3.77% and -4.57% and -3.57% and -1.34% and -6.11% and -2.27% and -2.71% and -7.69% and -7.29%
NCI-H2009, RMC-7977 10 mg/kg po qd, day 7 on study, individual animals, 10 mg/kg
  % Body Weight Change: 5.31% and -3.77% and -1.37% and -4.02% and -2.68% and -5.24% and -0.45% and -4.52% and -8.97% and -5.26%
NCI-H2009, RMC-7977 10 mg/kg po qd, day 10 on study, individual animals, 10 mg/kg
  % Body Weight Change: 5.31% and -1.89% and -5.48% and -3.13% and -3.57% and -5.24% and -4.55% and -2.71% and -7.26% and -7.29%
NCI-H2009, RMC-7977 10 mg/kg po qd, day 14 on study, individual animals, 10 mg/kg
  % Body Weight Change: 3.38% and -1.42% and -0.91% and -0.45% and 0.45% and -3.06% and -3.18% and -1.36% and -1.71% and -6.88%
NCI-H2009, RMC-7977 10 mg/kg po qd, day 17 on study, individual animals, 10 mg/kg
  % Body Weight Change: 2.90% and 1.42% and 0.46% and 0.00% (2×) and -0.45% (2×) and -3.93% and 1.81% and -5.67%
NCI-H2009, RMC-7977 10 mg/kg po qd, day 21 on study, individual animals, 10 mg/kg
  % Body Weight Change: 4.35% and 0.94% and -1.37% and 2.23% and 0.45% and -2.62% and 0.00% and 0.90% and 0.43% and -3.64%
NCI-H2009, RMC-7977 10 mg/kg po qd, day 24 on study, individual animals, 10 mg/kg
  % Body Weight Change: 4.35% and -1.89% and -3.20% and 0.00% (3×) and -1.79% and -3.06% and -0.85% and -4.45%
NCI-H2009, RMC-7977 10 mg/kg po qd, day 28 on study, individual animals, 10 mg/kg
  % Body Weight Change: 0.97% and 0.00% (2×) and 1.34% and -1.34% and -1.75% and 1.82% and 0.90% and 2.56% and -6.88%
PDAC G12D tumor bearing BALB/c nude mice, 10 mg/kg po qd, day 28, individual animals, 10 mg/kg
  % Body Weight Change: 0.00% (2×) and 4.17% and 17.39%
PSN-1 tumor bearing BALB/c nude mice, 10 mg/kg po qd, day 0, individual animals
  % Body Weight Change: 0%
PSN-1 tumor bearing BALB/c nude mice, 10 mg/kg po qd, day 3, individual animals, 10 mg/kg
  % Body Weight Change: -2.37% and -0.9302% and 5.43% and 6.03% and 0.5102%
PSN-1 tumor bearing BALB/c nude mice, 10 mg/kg po qd, day 7, individual animals, 10 mg/kg
  % Body Weight Change: -1.4218% and -1.395% and 3.167% and 6.03% and 1.531%
PSN-1 tumor bearing BALB/c nude mice, 10 mg/kg po qd, day 10, individual animals, 10 mg/kg
  % Body Weight Change: -4.2654% and -2.7907% and 2.715% and 4.523% and -1.531%
Model named above the shown rows, RMC-7977 10 mg/kg po qd, day 0 on study, individual animals
  % Body Weight Change: 0%
Model named above the shown rows, RMC-7977 10 mg/kg po qd, day 2 on study, individual animals, 10 mg/kg
  % Body Weight Change: 0% (3×) and -0.939% and 4.369% and -0.9302% and -1.887% and 0.9569%
Model named above the shown rows, RMC-7977 10 mg/kg po qd, day 6 on study, individual animals, 10 mg/kg
  % Body Weight Change: 0.4566% and -0.939% and 3.398% and -2.7907% and 3.93% and -1.887% and 0.4444% and 1.435%
Model named above the shown rows, RMC-7977 10 mg/kg po qd, day 9 on study, individual animals, 10 mg/kg
  % Body Weight Change: -1.826% and -0.939% and 3.8835% and 2.7907% and 1.747% and 0.9434% and 1.333% and 2.871%
Model named above the shown rows, RMC-7977 10 mg/kg po qd, day 13 on study, individual animals, 10 mg/kg
  % Body Weight Change: 5.479% and 1.408% and 4.854% and 0.4651% and 1.747% and 0.4717% and 0.4444% and 1.914%
Model named above the shown rows, RMC-7977 10 mg/kg po qd, day 16 on study, individual animals, 10 mg/kg
  % Body Weight Change: 3.653% and 0% and 5.825% and 2.326% and 3.493% and 0.4717% and 1.778% and 4.306%
Model named above the shown rows, RMC-7977 10 mg/kg po qd, day 20 on study, individual animals, 10 mg/kg
  % Body Weight Change: 3.653% and 0.939% and 6.796% and -1.395% and 3.057% and 1.415% and 3.111% and 2.392%
Model named above the shown rows, RMC-7977 10 mg/kg po qd, day 23 on study, individual animals, 10 mg/kg
  % Body Weight Change: 4.11% and 2.8169% and 8.738% and 1.86% and 0.4367% and 8.491% and 1.778% and 2.871%
Model named above the shown rows, RMC-7977 10 mg/kg po qd, day 27 on study, individual animals, 10 mg/kg
  % Body Weight Change: 5.023% and 1.408% and 9.2233% and 0.4651% and 0.8734% and 3.302% and 2.222% and 3.349%
Xenograft model named above the shown rows, RMC-7977 10 mg/kg po qd, day 14 on study, individual animals, 10 mg/kg
  % Body Weight Change: -2.8436% and 0.9302% and 4.525% and 8.0402% and 4.082%
Xenograft model named above the shown rows, RMC-7977 10 mg/kg po qd, day 17 on study, individual animals, 10 mg/kg
  % Body Weight Change: -2.8436% and -0.4651% and 3.167% and 8.0402% and 1.02%
Xenograft model named above the shown rows, RMC-7977 10 mg/kg po qd, day 21 on study, individual animals, 10 mg/kg
  % Body Weight Change: -2.8436% and -0.9302% and -18.0995% and 10.5528% and 0.5102%
Xenograft model named above the shown rows, RMC-7977 10 mg/kg po qd, day 24 on study, individual animals, 10 mg/kg
  % Body Weight Change: -0.4739% and 0.4651% and -17.1946% and 7.538% and 1.531%
Xenograft model named above the shown rows, RMC-7977 10 mg/kg po qd, day 28 on study, individual animals, 10 mg/kg
  % Body Weight Change: -2.37% and -3.721% and -14.4796% and 9.045% and 2.551%
